The list is a part of this screen's results and no random one: it gathers tests that were run many times, whatever their T/C, doses with no T/C, and many T/C values between a quarter and a half above the control. Other doses and runs of a compound stand elsewhere. T/C is the treated group as % of the vehicle group. Some doses have a count of surviving animals in place of a T/C: the source holds a T/C of zero for them, seemingly a mark for toxic or unscored doses. Some doses without a T/C left all or most animals alive at the check, yet need not have been tolerated: survival well below the control is almost never listed, so the zero probably covers shortened survival too. Counts of survivors are from the toxicity check (mostly the fifth day) where no day follows; animals may have died later. Schedule codes are those of the source, taken here to give the interval after Q, in days (D) or hours (H), and the number of doses after X. Some schedule codes hold Z or #, which are not explained here. Some entries hold several experiments; the results are listed from low to high. Where survival is the endpoint, this PubChem deposit counts one and a half times the control or more as active, and values a quarter to a half above the control carry no call in these data; other NCI protocols may use other cut-offs. Some T/C values are followed by the survivors on the day toxicity was checked, most often the fifth; where none is given, no animal had died by that day. Marks such as (2×) give the number of equal values in this list.
System: L1210 leukemia ip in BDF1 mice, survival T/C
Assay: NCI In Vivo Anticancer Drug Screen. Data for tumor model L1210 Leukemia (intraperitoneal) in B6D2F1 (BDF1) mice
Conditions: T/C endpoint: mean survival time, higher T/C = longer survival
[1] = dose: 200.0 mg/kg/injection, schedule: Q04DX003 (ip), vehicle: saline
[2] = dose: 400.0 mg/kg/injection, schedule: Q04DX003 (ip), vehicle: saline
[3] = dose: 200.0 mg/kg/injection, schedule: Q04DX003 (ip), vehicle: saline with Tween-80
[4] = dose: 400.0 mg/kg/injection, schedule: Q04DX003 (ip), vehicle: saline with Tween-80
[5] = dose: 400.0 mg/kg/injection, schedule: Q04DX003 (ip), vehicle: Klucel (hydroxypropylcellulose) (HPC)
[6] = dose: 120.0 mg/kg/injection, schedule: Q01DX Z (oral), vehicle: carboxymethylcellulose (CMC)
[7] = dose: 100.0 mg/kg/injection, schedule: Q04DX003 (ip), vehicle: saline with Tween-80
[8] = dose: 200.0 mg/kg/injection, schedule: Q04DX002 (ip), vehicle: other
[9] = dose: 400.0 mg/kg/injection, schedule: Q04DX002 (ip), vehicle: other

In the case of CN(C)CCCN1c2ccccc2CCc2ccc(Cl)cc21, the survivor count (dose: 100.0 mg/kg/injection, schedule: Q01DX009 (ip), vehicle: saline) is reported as 1 of 6, the survivor count (dose: 100.0 mg/kg/injection, schedule: Q04DX003 (ip), vehicle: saline) is reported as 0 of 4 and the survivor count (dose: 200.0 mg/kg/injection, schedule: Q01DX009 (ip), vehicle: saline) is reported as 0 of 6. For the same compound, the survivor count [1] was 0 of 4, the survivor count (dose: 400.0 mg/kg/injection, schedule: Q01DX009 (ip), vehicle: saline) was 0 of 6 and the survivor count [2] was 0 of 4.
For N#CCC(C#N)N1CCOCC1 (configuration not stated), the survivor count [3] was 0 of 6 and the survivor count [4] was 0 of 6.
C#CC(C)(C)N1CCCCC1 was tested, and the survivor count (dose: 100.0 mg/kg/injection, schedule: Q04DX003 (ip), vehicle: Klucel (hydroxypropylcellulose) (HPC)) was 3 of 6.
O=C1c2ccccc2C(=O)C2OC12 (configuration not stated) was tested, and the survivor count (dose: 100.0 mg/kg/injection, schedule: Q04DX002 (ip), vehicle: Klucel (hydroxypropylcellulose) (HPC)) was 3 of 3, the survivor count (dose: 200.0 mg/kg/injection, schedule: Q04DX002 (ip), vehicle: Klucel (hydroxypropylcellulose) (HPC)) was 0 of 3 and the survivor count (dose: 400.0 mg/kg/injection, schedule: Q04DX002 (ip), vehicle: Klucel (hydroxypropylcellulose) (HPC)) was 0 of 3.
CC(=O)Nc1cc(N)cc(NC(C)=O)c1 was tested, and the survivor count (dose: 400.0 mg/kg/injection, schedule: Q04DX003 (ip), vehicle: water) was 4 of 6.
With CCC1CCC(Cc2ccncc2)CC1 (configuration not stated) the survivor count [5] was 6 of 6.
Cn1c(=O)cc(C=Nc2ccc(O)cc2)c2ccccc21 was tested, and the survivor count (dose: 400.0 mg/kg/injection, schedule: Q01DX001 (ip), vehicle: saline) was 6 of 6.
In the case of OC1CN(C2CCCCC2)C1, the survivor count [1] is reported as 1 of 6 and the survivor count [2] is reported as 0 of 6.
In the case of NC(N)=N/N=C/C(Cl)Cl, the T/C (dose: 90.0 mg/kg/injection, schedule: Q01DX Z (oral), vehicle: carboxymethylcellulose (CMC)) is reported as 130 % of control [5 of 6 alive], the survivor count (dose: 120.0 mg/kg/injection, schedule: Q01DX Z (ip), vehicle: carboxymethylcellulose (CMC)) is reported as 3 of 6 and the T/C [6] is reported as 125 and 133 % of control. For the same compound, the survivor count [6] was 3 of 6, the survivor count (dose: 150.0 mg/kg/injection, schedule: Q01DX009 (ip), vehicle: saline) was 0 of 6 and the T/C (dose: 150.0 mg/kg/injection, schedule: Q01DX Z (oral), vehicle: carboxymethylcellulose (CMC)) was 125 and 146 % of control. The survivor count (dose: 180.0 mg/kg/injection, schedule: Q01DX Z (oral), vehicle: carboxymethylcellulose (CMC)) was 2 of 6, the survivor count [1] was 0 of 6 and the survivor count (dose: 225.0 mg/kg/injection, schedule: Q01DX009 (ip), vehicle: saline) was 0 of 6. The survivor count (dose: 240.0 mg/kg/injection, schedule: Q01DX Z (oral), vehicle: carboxymethylcellulose (CMC)) was 1 of 6 and 3 of 6, the survivor count (dose: 335.0 mg/kg/injection, schedule: Q01DX009 (ip), vehicle: saline) was 0 of 6 and the survivor count (dose: 480.0 mg/kg/injection, schedule: Q01DX Z (oral), vehicle: carboxymethylcellulose (CMC)) was 0 of 6. For the same compound, the survivor count (dose: 960.0 mg/kg/injection, schedule: Q01DX Z (oral), vehicle: carboxymethylcellulose (CMC)) was 0 of 6.
COC(=O)C12Oc3ccc(-c4ccc5c(c4O)C(O)=C4C(=O)CC(C)C(O)C4(C(=O)OC)O5)c(O)c3C(O)=C1C(=O)CC(C)C2O (configuration not stated) was tested, and the survivor count (dose: 12.5 mg/kg/injection, schedule: Q01DX009 (ip), vehicle: saline with Tween-80) was 3 of 6, the survivor count (dose: 25.0 mg/kg/injection, schedule: Q01DX009 (ip), vehicle: saline with Tween-80) was 6 of 6 and the survivor count (dose: 50.0 mg/kg/injection, schedule: Q04DX003 (ip), vehicle: saline with Tween-80) was 6 of 6. For the same compound, the survivor count [7] was 5 of 6 and the survivor count [3] was 2 of 6.
With Brc1ccccc1C[n+]1cccc2ccccc21 the survivor count (dose: 150.0 mg/kg/injection, schedule: Q01DX001 (ip), vehicle: other) was 0 of 6 and the survivor count (dose: 300.0 mg/kg/injection, schedule: Q01DX001 (ip), vehicle: other) was 0 of 6.
With CCC(C)C(CN)(CCN1CCCCC1)Cc1cccc2ccccc12 (configuration not stated) the survivor count [7] was 4 of 6, the survivor count [3] was 0 of 6 and the survivor count [4] was 0 of 6.
In the case of Cc1cc2cc3cccc[n+]3cc2c2ccccc12, the survivor count (dose: 8.0 mg/kg/injection, schedule: Q01DX Z (ip), vehicle: carboxymethylcellulose (CMC)) is reported as 6 of 6, the survivor count (dose: 16.0 mg/kg/injection, schedule: Q01DX Z (ip), vehicle: carboxymethylcellulose (CMC)) is reported as 0 of 6 and the survivor count (dose: 32.0 mg/kg/injection, schedule: Q01DX Z (ip), vehicle: carboxymethylcellulose (CMC)) is reported as 0 of 6. For the same compound, the survivor count (dose: 64.0 mg/kg/injection, schedule: Q01DX Z (ip), vehicle: carboxymethylcellulose (CMC)) was 0 of 6.
For C[As](C)Sc1ccnc(S[As](C)C)n1, the survivor count (dose: 400.0 mg/kg/injection, schedule: Q01DX009 (ip), vehicle: saline with Tween-80) was 3 of 6 and the survivor count [4] was 6 of 6.
With CCOP(=O)(CCl)NC12CC3CC(CC(C3)C1)C2 (configuration not stated) the survivor count [5] was 3 of 6.
With c1ccc(N2CCOCC2)cc1 the survivor count (dose: 50.0 mg/kg/injection, schedule: Q01DX009 (ip), vehicle: saline with Tween-80) was 3 of 3.
With Nc1nc(N)c2cc(CNc3ccc(C(=O)NC(CC(=O)O)C(=O)O)c(Cl)c3)ccc2n1 (configuration not stated) the T/C (dose: 0.8 mg/kg/injection, schedule: Q01DX009 (ip), vehicle: saline with Tween-80) was 144 % of control, the T/C (dose: 0.8 mg/kg/injection, schedule: Q01DX009 (ip), vehicle: saline) was 137 % of control and the T/C (dose: 1.2 mg/kg/injection, schedule: Q01DX009 (ip), vehicle: saline with Tween-80) was 149 % of control. For the same compound, the T/C (dose: 1.2 mg/kg/injection, schedule: Q01DX009 (ip), vehicle: saline) was 148 % of control, the survivor count (dose: 4.0 mg/kg/injection, schedule: Q01DX009 (ip), vehicle: saline) was 6 of 6 and the survivor count (dose: 6.0 mg/kg/injection, schedule: Q01DX009 (ip), vehicle: saline) was 6 of 6. The survivor count (dose: 9.0 mg/kg/injection, schedule: Q01DX009 (ip), vehicle: saline) was 6 of 6, the survivor count (dose: 13.0 mg/kg/injection, schedule: Q01DX009 (ip), vehicle: saline) was 6 of 6 and the survivor count (dose: 20.0 mg/kg/injection, schedule: Q01DX009 (ip), vehicle: saline) was 6 of 6. The survivor count (dose: 30.0 mg/kg/injection, schedule: Q01DX009 (ip), vehicle: saline) was 6 of 6.
In the case of Cc1ccc(NC(=S)NC(=O)COc2ccccc2)cc1C, the T/C (dose: 100.0 mg/kg/injection, schedule: Q04DX002 (ip), vehicle: other) is reported as 98 (2×), 109, 116 % of control, the T/C [8] is reported as 90, 106, 118 % of control [5 of 6 alive] and the survivor count [8] is reported as 3 of 3. For the same compound, the survivor count (dose: 200.0 mg/kg/injection, schedule: Q04DX003 (ip), vehicle: other) was 3 of 6, the survivor count (dose: 400.0 mg/kg/injection, schedule: Q01DX001 (ip), vehicle: other) was 0 of 6 and the T/C [9] was 92 % of control [2 of 3 alive]. For the same compound, the survivor count [9] was 1 of 3 and 3 of 6.
With C#CC(OC(=O)NC(CCSC)C(=O)OC)(c1ccccc1)c1ccccc1 (configuration not stated) the survivor count (dose: 400.0 mg/kg/injection, schedule: Q01DX001 (ip), vehicle: saline with Tween-80) was 2 of 3.
With CCCCCC(=O)c1c(O)cc2c(c1O)C(=O)c1c(O)cc(O)cc1C2=O the survivor count (dose: 30.0 mg/kg/injection, schedule: Q01DX001 (ip), vehicle: saline) was 6 of 6.

Reference: PubChem BioAssay AID248 (DTP/NCI, 2004)
